This is one part of the list.

This assay has as its target T1, OsSMF1 (Oryza sativa, UniProt Q6ZLB0 1-436).
T1 sequence: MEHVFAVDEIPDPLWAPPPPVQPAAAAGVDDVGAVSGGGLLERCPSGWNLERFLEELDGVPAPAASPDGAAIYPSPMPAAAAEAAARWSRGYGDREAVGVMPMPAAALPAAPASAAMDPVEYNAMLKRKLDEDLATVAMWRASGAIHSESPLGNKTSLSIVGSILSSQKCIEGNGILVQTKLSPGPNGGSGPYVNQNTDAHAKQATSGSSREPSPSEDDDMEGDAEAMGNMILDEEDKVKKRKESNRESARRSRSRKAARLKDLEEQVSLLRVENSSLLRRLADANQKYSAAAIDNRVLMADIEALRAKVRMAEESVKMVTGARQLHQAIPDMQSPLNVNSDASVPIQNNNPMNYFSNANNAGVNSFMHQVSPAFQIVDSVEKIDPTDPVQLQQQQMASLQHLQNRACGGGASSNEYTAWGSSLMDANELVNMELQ
The assay is described as follows: protein-binding microarray (RPBM); PBS, 2% BSA, 51.3 ng/ul salmon testes DNA, 50 uM zinc acetate, 200 nM TF, 25 C, 1 h; high values mean tight binding. The note with it: protein: recombinant; tags: N-terminal polyhistidine and DsRed monomer fusion (pET32a); chain copies: 2; label: CyDye5-dUTP incorporated in the synthesized complementary strand; 3' TTTTT single-stranded linker to array surface; dsDNA, one strand shown. An outline of the steps: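 The binding signal is fluorescence intensity per array feature (arbitrary units). Readings came from an Axon 4000B scanner after a washed, 2% BSA-blocked, double-stranded custom Agilent array had been incubated for 1 h at 25 °C with 200 nM protein and 50 µM zinc acetate. The protein was a Ni–NTA-purified transcription factor fused N-terminally to polyhistidine and DsRed, expressed in E. coli BL21-CodonPlus.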
On to “CTTCGTCTTCCTCCCTCCTCGTCACGTCAGGCTGCCAACGCGGAGTCACCTAGTGCAG”, for which the binding signal is 6080 fluorescence intensity (a.u.). Next, “GCTGCCCCTCGTCACCGCCCGTCGCGGTTGCCCCTCATCGCGGAGTCACCTAGTGCAG”: 3980 fluorescence intensity (a.u.). With “ATGCTTCGTAGTGAACTTATCCTAAATAGCAGCAGCTTGTCGGAGTCACCTAGTGCAG”, the binding signal was 38000 fluorescence intensity (a.u.).

“CATGTCGTACGCCATCTCTCATCGCTGCGTCCAATTAAATCGGAGTCACCTAGTGCAG”: the binding signal is 3650 fluorescence intensity (a.u.). As for “TTCCGGCGAAACGGGCATGACGTCATCCAGCATGTGGGACCGGAGTCACCTAGTGCAG”, the binding signal was 13000 fluorescence intensity (a.u.). Consider “GTGCCAGCTTGAGAGCGCTTTTAGGATGCCACATGTCAGCCGGAGTCACCTAGTGCAG”, for which the binding signal was 5270 fluorescence intensity (a.u.). Next, “TTTCGAAACCCTAAACCGTATCAAGCAAGATCGATGTGCACGGAGTCACCTAGTGCAG”: 24000 fluorescence intensity (a.u.); “CGACGGGACGGCGGCGCCCTCGTCACTCCACATCTGACTCCGGAGTCACCTAGTGCAG”: 3460 fluorescence intensity (a.u.). On to “TTTCCGCTATCGCGGTGCGCGCGGAAGGCCCCGCTGCGGCCGGAGTCACCTAGTGCAG”, for which the binding signal is 39200 fluorescence intensity (a.u.).

As for “TATGGCTGACGTGGCTCCTACGTGGCTCCTTTGACTAGGTCGGAGTCACCTAGTGCAG”, the binding signal is 33800 fluorescence intensity (a.u.). With “GCCGCACGCTAGGCCCCGCGCGTACACGTACGCGCGCTGCCGGAGTCACCTAGTGCAG”, the binding signal is 6780 fluorescence intensity (a.u.). The figure for “ATAAATACCAGCTTTCCAACCATCACTTATTCACTTGCCCCGGAGTCACCTAGTGCAG” is 3740 fluorescence intensity (a.u.); for “CCGTTGGATCGCAATCCATCACGCACATCCCTCCGCCACCCGGAGTCACCTAGTGCAG” it is 24700 fluorescence intensity (a.u.); for “ACGAAGCCACACTGTTCATTCATCACGTCCCCAACTCTGCCGGAGTCACCTAGTGCAG” it is 25400 fluorescence intensity (a.u.). Take “CTCATCCACCCATCCTCATCCTTATCCTCACTCTCTCCTCCGGAGTCACCTAGTGCAG”: the binding signal is 4200 fluorescence intensity (a.u.). Turning to “GCAAAGGCTTGACAGATGTGAGTCCTAACTCAAACTATTGCGGAGTCACCTAGTGCAG”, the binding signal is 3540 fluorescence intensity (a.u.). Consider “AATCAATCCATTAATATTTAACATGATCAGGCATTAGTCGCGGAGTCACCTAGTGCAG”, for which the binding signal is 3580 fluorescence intensity (a.u.).

With “CACCTGCATGACGACTTAAATGTTTATGGTGATATCTTCTCGGAGTCACCTAGTGCAG”, the binding signal was 3520 fluorescence intensity (a.u.). For the sequence “TGAAGAATTGGAGTTGTACACTTGATAGTATAGTGGAAAGCGGAGTCACCTAGTGCAG”, the binding signal is 19000 fluorescence intensity (a.u.). As for “ACATCGAGATGCATATCTTTGATACGTCATGCGCACTGATCGGAGTCACCTAGTGCAG”, the binding signal is 5930 fluorescence intensity (a.u.). As to “CTGAACCATCCGACTCACCACCGGTATTTCTCGGCCATCTCGGAGTCACCTAGTGCAG”, the binding signal was 3950 fluorescence intensity (a.u.). Turning to “TCAAGGGAGAGGCGAGAGACATATAAATAAGGGTGCTCCGCGGAGTCACCTAGTGCAG”, the binding signal is 3160 fluorescence intensity (a.u.).

With “ATCTAAATATTTATAAATCTATTGAAGTTTAATTTTCTTTCGGAGTCACCTAGTGCAG”, the binding signal was 4810 fluorescence intensity (a.u.). Next, “CTACTGGTAGATGATAGGTCAGGCAATGAATTGTAGATTGCGGAGTCACCTAGTGCAG”: 3550 fluorescence intensity (a.u.). As for “GGCGACACCGCCACCGCCGCCGTCTCAGTCAGCGACCGTGCGGAGTCACCTAGTGCAG”, the binding signal was 3170 fluorescence intensity (a.u.).

Turning to “GCGCAGAGATCGTGTACAACTGTGCACATGTATGGTGTTTCGGAGTCACCTAGTGCAG”, the binding signal was 3510 fluorescence intensity (a.u.). Regarding “AAGTCACATAAATTGCTTTACATGGTCTCAATGATAAGTACGGAGTCACCTAGTGCAG”, the binding signal is 21100 fluorescence intensity (a.u.). For the sequence “ATGCACGCGAGCACGTCGGCACACATCATGATCATCTAGCCGGAGTCACCTAGTGCAG”, the binding signal is 3850 fluorescence intensity (a.u.). The figure for “GTAACCAGTTCGGGTCATTTAGCAACAGCTCCTTTGAAGGCGGAGTCACCTAGTGCAG” is 3570 fluorescence intensity (a.u.); for “GCGTTATTGTACTAACGCGCGACGGAGCAAGAAAACGTATCGGAGTCACCTAGTGCAG” it is 4110 fluorescence intensity (a.u.). Next, “GTCTTCTTCCTCCTCCTGTCCTGGATCTCACAGGGTGGCACGGAGTCACCTAGTGCAG”: 3190 fluorescence intensity (a.u.).

“CAATATCGTGCGTGCGTTCTTAGTGTTTGGGCTAACAAAACGGAGTCACCTAGTGCAG”: the binding signal was 4940 fluorescence intensity (a.u.). For the sequence “CAATTTTAGCAAATGTTCCTGCTCCGTGATTTGGCGGCATCGGAGTCACCTAGTGCAG”, the binding signal is 19200 fluorescence intensity (a.u.). In the case of “GGTGGATTATGACTCTACGCTGACAATGACATCAACCTGCCGGAGTCACCTAGTGCAG”, the binding signal is 9370 fluorescence intensity (a.u.).

As to “CTGAGTGCGTCTTCAAGACGTTAGAATGCTGACATGCTTGCGGAGTCACCTAGTGCAG”, the binding signal is 4300 fluorescence intensity (a.u.).

Consider “AGGGGATGGGATCACCGCGATGCAAAATTAACTCAAATATCGGAGTCACCTAGTGCAG”, for which the binding signal was 19400 fluorescence intensity (a.u.). Turning to “GCAATGGCGTCATGCTATGCTTGCAGTTGCAGGCTGATTTCGGAGTCACCTAGTGCAG”, the binding signal was 4280 fluorescence intensity (a.u.). As for “GTCTGCAACCAACTTGATTACACCAAACGACTTATATTTGCGGAGTCACCTAGTGCAG”, the binding signal is 15900 fluorescence intensity (a.u.).

On to “TGCGGATACAGTCACTACTACTTACGCGCCTTCGACATGTCGGAGTCACCTAGTGCAG”, for which the binding signal was 3870 fluorescence intensity (a.u.). Next, “GCGACCCAAATGACGTCCACGTGTAAATATCTTCGCTCCGCGGAGTCACCTAGTGCAG”: 12700 fluorescence intensity (a.u.); “TTCCGTGCCTCGACCTCGCCCAGCGCCTGGCGTGTGGCCACGGAGTCACCTAGTGCAG”: 3450 fluorescence intensity (a.u.). Take “GTTACTTGCGTGTGGTGCCACGGTGACAGTCAGCCGCGGTCGGAGTCACCTAGTGCAG”: the binding signal was 7450 fluorescence intensity (a.u.).

Source of the values: paper PMC7819943, “Rice protein-binding microarrays: a tool to detect cis-acting elements near promoter regions in rice”.
